This passage reports GFP- results from the supplement of paper PMC11060735.

Where “and” joins values, the source holds several entries; their conditions need not be identical. Equal entries are not always repeated. ± gives the standard deviation of the averaged measurements. In all, about 1,800 compounds were measured (“GFP- (p16Ink4a-) cell count relative to negative-control wells”: median about 0.99, lowest 2% from about 0.5 on). This is one part of the list.

In this experiment the test system is mouse p16Ink4a+/- lung fibroblasts (INKBRITE, bleomycin-injured). As to the kind of experiment: GFP- (p16Ink4a-) cell count relative to negative-control wells (fold of vehicle); higher = more p16Ink4a- cells surviving. The note with it: 1 µM; 3 days.
On to `Cc1nc(NC(=O)N2CCC[C@H]2C(N)=O)sc1-c1csc(C(C)(C)C)n1`, for which the GFP- was found to be 1.03.

Consider `CCOC(=O)C1=C(C)N=C(C)/C(=C(/O)OCC)C1c1ccccc1/C=C/C(=O)OC(C)(C)C` (centres undefined) [Lacidipine], for which the GFP- is 1.08.

Compound `O=C(O)c1ccccc1` [Benzoic Acid] gave a GFP- of 1.05.

`CC(=O)Nc1nc2c(Oc3cc(-c4ccc(C(F)(F)F)cc4)ncn3)cccc2s1` registered a GFP- of 0.87.

In the case of `O=C1c2ccccc2-c2[nH]nc3cccc1c23` [2,6-Dihydroanthra/1,9-Cd/Pyrazol-6-One], the GFP- worked out at 1.08.

The compound `CCc1nc(N)nc(N)c1-c1ccc(Cl)cc1` [Pyrimethamine] came in with a GFP- of 1.

For the compound `O=C1C(Cl)=C(N2CCOCC2)C(=O)N1c1ccc(Cl)c(Cl)c1`, the GFP- was 1.05.

Regarding `Cc1cnc(C(=O)NCCc2ccc(S(=O)(=O)NC(=O)NC3CCCCC3)cc2)cn1` [Glipizide], the GFP- amounted to 1.11.

As for `CCOc1ccc2ccccc2c1C(=O)N[C@@H]1C(=O)N2[C@@H]1SC(C)(C)[C@@H]2C(=O)O` [Nafcillin Sodium], the GFP- is 0.94.

In turn, `O=C(O)c1cccc(-c2noc(-c3ccccc3F)n2)c1` [Ataluren] displayed a GFP- of 1.07.

Take `CO/C(O)=C1\C(C)=NC(C)=C(C(=O)OCCN2CCN(C(c3ccccc3)c3ccccc3)CC2)C1c1cccc([N+](=O)[O-])c1` (centres undefined) [Manidipine]: the GFP- was 0.985 and 0.964.

As to `O=c1c(O)c(-c2cc(O)c(O)c(O)c2)oc2cc(O)cc(O)c12` [Myricetin], the GFP- worked out at 1.

On to `C[C@]12C=CC(=O)C=C1CC[C@@H]1[C@@H]2[C@@H](O)C[C@@]2(C)[C@H]1CC[C@]2(O)C(=O)CO` [Prednisolone], for which the GFP- is 0.983.

For `CCCCNC(=O)NS(=O)(=O)c1ccc(C)cc1` [Tolbutamide], the GFP- was determined as 0.985.

As to `CN1C(C(=O)Nc2ccccn2)=C(O)c2sccc2S1(=O)=O` [Tenoxicam], the GFP- was 1.07.

With `COc1cc(-c2ncn(/C=C\C(=O)OC(C)C)n2)cc(C(F)(F)F)c1`, the GFP- was 0.671.

For the compound `O=C(Nc1ccccc1-c1cn2c(CN3CCNCC3)csc2n1)c1cnc2ccccc2n1`, the GFP- is 0.752 and 0.432.

For `COc1c(C)c2c(c(O)c1C/C=C(\C)CCC(=O)O)C(=O)OC2` [Mycophenolic Acid], the GFP- was 0.718.

Consider `C=CC[N+]1([C@H]2C[C@H]3[C@@H]4CC[C@H]5C[C@H](O)[C@@H](N6CCOCC6)C[C@]5(C)[C@H]4CC[C@]3(C)[C@H]2OC(C)=O)CCCC1` [Rocuronium], for which the GFP- worked out at 0.894.

Turning to `C/C(=C\C(=O)Nc1ccccc1C(=O)O)c1ccc2ccccc2c1`, the GFP- turned out to be 1.23.

Regarding `Nc1ccccc1NC(=O)c1ccc(CNc2nccc(-c3cccnc3)n2)cc1` [Mocetinostat], the GFP- was 0.436 ± 0.22.

In turn, `C#Cc1cccc(Nc2ncnc3cc(OCCOC)c(OCCOC)cc23)c1` [Erlotinib] returned a GFP- of 0.287.

In the case of `COc1ccc(-c2coc3cc(O)ccc3c2=O)cc1` [Formononetin], the GFP- was determined as 0.986.

The compound `COc1cc(O)cc([C@@H]2CC(=O)c3c(O)cc(O[C@@H]4O[C@H](CO)[C@@H](O)[C@H](O)[C@H]4O[C@@H]4O[C@@H](C)[C@H](O)[C@@H](O)[C@H]4O)cc3O2)c1` [Neohesperidin] returned a GFP- of 0.932.

In turn, `CCCCOc1cc(C(=O)NCCN(CC)CC)c2ccccc2n1` [Cinchocaine] registered a GFP- of 0.998.

Turning to `O=C1CCc2ccc(OCCCCN3CCN(c4cccc(Cl)c4Cl)CC3)cc2N1` [Aripiprazole], the GFP- turned out to be 0.94.

`O=C(O)c1ccc2c(c1)nc(Nc1cccc(Cl)c1)c1ccncc12` [Silmitasertib] gave a GFP- of 1.12.

`CC(C)NCC(O)COc1cccc2ccccc12` (centres undefined) [Propranolol]: the GFP- was determined as 0.987.

In turn, `CCCCc1nc2cc(/C=C/C(=O)NO)ccc2n1CCN(CC)CC` [Pracinostat] had a GFP- of 0.53 ± 0.063.

In turn, `COc1ccccc1Oc1c(NS(=O)(=O)c2ccc(C(C)(C)C)cc2)nc(-c2ncccn2)nc1OCCO` [Bosentan] registered a GFP- of 0.939.

The compound `CC1(C)O[C@@H]2[C@@H](CO[C@@]3(COS(N)(=O)=O)OC(C)(C)O[C@@H]23)O1` [Topiramate] displayed a GFP- of 1.11.

The compound `N#Cc1c(Oc2ccc(F)c(NC(=O)Cc3cccc(C(F)(F)F)c3)c2)ccc2nc(NC(=O)C3CC3)sc12` came in with a GFP- of 1.05.

For the compound `CC(C)C1CCC(C(=O)N[C@H](Cc2ccccc2)C(=O)O)CC1` (some centres undefined) [Nateglinide], the GFP- was found to be 1.06.

In turn, `CCCCCCCCCCCCCCCCO` [1-Hexadecanol] came in with a GFP- of 0.837.

Consider `Nc1ccn([C@@H]2O[C@H](CO)[C@@H](O)[C@@H]2O)c(=O)n1` [Cytarabine], for which the GFP- came out at 0.757.

For the compound `COc1cccc2c1[O][Mn]13([Cl])<-[N](=C2)CC[N]->1=Cc1cccc(OC)c1[O]3`, the GFP- was determined as 1.04.

As to `CCCCOc1ccc(CC(=O)NO)cc1` [Bufexamac], the GFP- came to 0.962.

Compound `Clc1ccccc1C(c1ccccc1)(c1ccccc1)n1ccnc1` [Clotrimazole] yielded a GFP- of 0.983.

`Cc1cc(C)cc(NC(=O)Cc2ccc(OC(C)(C)C(=O)O)cc2)c1` [Efaproxiral Sodium] had a GFP- of 1.07.

In turn, `COc1cc2c(cc1-c1c(C)noc1C)ncc1nc(O)n([C@H](C)c3ccccn3)c12` returned a GFP- of 0.997 ± 0.029.

For the compound `COc1ccc2c(c1)c(CC(=O)O)c(C)n2C(=O)c1ccc(Cl)cc1` [Indomethacin], the GFP- is 0.977.

For the compound `COc1ccccc1OCC(O)COC(N)=O` (centres undefined) [Methocarbamol], the GFP- amounted to 1.04.

In the case of `O=C(c1cn(Cc2cncn2Cc2ccc(Br)cc2)cc1-c1cccc2ccccc12)N1CCOCC1`, the GFP- turned out to be 0.845.

The compound `NC(=O)NO` [Hydroxyurea] registered a GFP- of 0.929.

In turn, `O=C(N/N=C/c1ccc(O)c(O)c1)c1cc2ccccc2cc1O` [Dynasore] came in with a GFP- of 1.14.

With `CN1CCN(C2=Nc3cc(Cl)ccc3Nc3ccccc32)CC1` [Clozapine], the GFP- was 1.12.

In turn, `C[C@H](Nc1ncnc2[nH]cnc12)c1cc2cccc(Cl)c2c(=O)n1-c1ccccc1` gave a GFP- of 0.96.

For `CCOC(=O)c1ccc(OC(=O)CCCCCN=C(N)N)cc1` [Gabexate], the GFP- was 1.

`Nc1ccc(N=Nc2ccccc2)c(N)n1` [Phenazopyridine] gave a GFP- of 1.03.

`Nc1cccc2c1CN(C1CCC(=O)NC1=O)C2=O` (centres undefined) [Lenalidomide] showed a GFP- of 1.03.

`Cn1cnc2c(F)c(Nc3ccc(Br)cc3F)c(C(=O)NOCCO)cc21` displayed a GFP- of 0.713.

With `Cc1cc(O)c2c(c1)C(=O)c1cc(O)cc(O)c1C2=O` [Emodin], the GFP- came out at 0.999.

On to `CS(=O)(=O)c1ccc(C(=O)Nc2ccc(Cl)c(-c3ccccn3)c2)c(Cl)c1` [Vismodegib], for which the GFP- was found to be 1.15.

For the compound `Cn1ncnc1[C@H]1c2nnc(O)c3cc(F)cc(c23)N[C@@H]1c1ccc(F)cc1`, the GFP- stood at 0.616 ± 0.066.
